Literature values, collected in PMC9974843 (Journal of medicinal chemistry, 2023).

Settings: not told

## CCCc1ccc(-c2ccc(N(C[C@@H](N)[C@@H](C)CC)C(=O)[C@@H]3C[C@H]3c3ccccn3)cc2)cc1 [Compound 2-PCCA, (1R,2R)-2-(pyridin-2-yl)-cyclopropane carboxylic acid [(2S,3S)-2-amino-3-methylpentyl]-(4′-propylbiphenyl-4-yl)amide]
  brain permeability: poor brain permeability
